Some entries share one result that the patent states for a list of compounds.
Test system: NCI-H358 subcutaneous xenograft tumors
Assay: NCI-H358 mouse xenograft model

C=CC(=O)N1CCN(c2nc(OC[C@@H]3CCCN3C)nc3c2COC(c2cccc4cccc(Cl)c24)C3)C[C@@H]1CC#N (single isomer, unassigned) [38 (Isomer B)]
weight loss (100 mg/kg, one of the mice, treatment suspended on Days 3 and 4): 10-15%

C=CC(=O)N1CCN(c2nc(=O)n(-c3c(C)ccnc3C(C)C)c3nc(-c4c(O)cccc4F)c(F)cc23)[C@@H](C)C1 [X (AMG 510), reference compound]
weight loss (30 mg/kg, two of eight mice, treatment suspended intermittently): 10-15%
